In US20070134261A1, “Effectors of innate immunity” (priority 2001, published 2007):
Not every detail of the peptide structures is certain; ends, links or a residue may be inferred. No end group written: not given here.

Test system: A549 epithelial cells
Experiment: Human Operon arrays (PRHU04-S1) of A549 cells treated with peptide alone (Tables 31-37, 53)
Conditions: peptide 50 μg/ml, 4 h

In the case of RRAWWKAWWARRK [ID 20], the “ID#:ctrl intensity ratio, AB010962 matrix metalloproteinase” value is reported as 6.2, the “ID#:ctrl intensity ratio, AB033063 unknown” value is reported as 10.3 and the “ID#:ctrl intensity ratio, AB033080 cell cycle progression 8 protein” value is reported as 4.6. The “ID#:ctrl intensity ratio, AB037786 unknown” value was 54.1, the “ID#:ctrl intensity ratio, AC007059 unknown” value was 5.7 and the “ID#:ctrl intensity ratio, AF023466 putative glycine-N-acyltransferase” value was 5.0. The “ID#:ctrl intensity ratio, AF030555 fatty-acid-Coenzyme A ligase” value was 2.2, the “ID#:ctrl intensity ratio, AF050078 growth arrest specific 11” value was 8.4 and the “ID#:ctrl intensity ratio, AF052116 unknown” value was 3.9. For the same sequence, the “ID#:ctrl intensity ratio, AF064493 LIM binding domain 2” value was 5.6, the “ID#:ctrl intensity ratio, AF144412 lens epithelial cell protein” value was 8.0 and the “ID#:ctrl intensity ratio, AF181286 unknown” value was 2.7. The “ID#:ctrl intensity ratio, AJ272208 IL-1R accessory protein-like 2” value was 2.9, the “ID#:ctrl intensity ratio, AJ272265 secreted phosphoprotein” value was 9.0 and the “ID#:ctrl intensity ratio, AJ275355 unknown” value was 17.3. The “ID#:ctrl intensity ratio, AK001024 guanine nucleotide-binding protein” value was 2.0, the “ID#:ctrl intensity ratio, AK001244 unknown” value was 5.5 and the “ID#:ctrl intensity ratio, AK001856 unknown” value was 7.0. For the same sequence, the “ID#:ctrl intensity ratio, AL022723 MHC, class I, F” value was 5.7, the “ID#:ctrl intensity ratio, AL049423 unknown” value was 3.7 and the “ID#:ctrl intensity ratio, AL050125 unknown” value was 14.3. For the same sequence, the “ID#:ctrl intensity ratio, AL050201 unknown” value was 3.1, the “ID#:ctrl intensity ratio, AL080107 unknown” value was 34.4 and the “ID#:ctrl intensity ratio, AL096729 unknown” value was 7.7. For the same sequence, the “ID#:ctrl intensity ratio, AL109792 unknown” value was 4.5, the “ID#:ctrl intensity ratio, AL117457 cofilin 2” value was 4.6 and the “ID#:ctrl intensity ratio, AL117567 DKFZP566O084 protein” value was 3.3. For the same sequence, the “ID#:ctrl intensity ratio, AL133602 unknown” value was 7.8, the “ID#:ctrl intensity ratio, AL137362 unknown” value was 4.1 and the “ID#:ctrl intensity ratio, AL137489 unknown” value was 2.9. The “ID#:ctrl intensity ratio, D38449 putative G protein coupled receptor” value was 11.1, the “ID#:ctrl intensity ratio, J00210 interferon alpha 13” value was 15.0 and the “ID#:ctrl intensity ratio, J03068 N-acylaminoacyl-peptide hydrolase” value was 2.4. For the same sequence, the “ID#:ctrl intensity ratio, L13720 growth arrest-specific 6” value was 2.5, the “ID#:ctrl intensity ratio, L22569 cathepsin B” value was 2.1 and the “ID#:ctrl intensity ratio, L40933 phosphoglucomutase 5” value was 11.0. The “ID#:ctrl intensity ratio, M27190 regenerating islet-derived 1 alpha” value was 3.0, the “ID#:ctrl intensity ratio, M33906 MHC class II, DQ alpha 1” value was 4.5 and the “ID#:ctrl intensity ratio, M37238 phospholipase C, gamma 2” value was 2.0. The “ID#:ctrl intensity ratio, M81933 cell division cycle 25A” value was 7.8, the “ID#:ctrl intensity ratio, NM_001756 corticosteroid binding globulin” value was 10.6 and the “ID#:ctrl intensity ratio, NM_006963 zinc finger protein” value was 6.8. The “ID#:ctrl intensity ratio, NM_014099 PRO1768 protein” value was 17.4, the “ID#:ctrl intensity ratio, S70348 Integrin beta 3” value was 4.8 and the “ID#:ctrl intensity ratio, U27655 regulator of G-protein signaling” value was 9.0. The “ID#:ctrl intensity ratio, U60179 growth hormone receptor” value was 3.5, the “ID#:ctrl intensity ratio, U80770 unknown” value was 4.1 and the “ID#:ctrl intensity ratio, U86529 glutathione S-transferase zeta 1” value was 6.8. For the same sequence, the “ID#:ctrl intensity ratio, U92981 unknown” value was 3.2, the “ID#:ctrl intensity ratio, X05323 unknown” value was 7.8 and the “ID#:ctrl intensity ratio, X54131 protein tyrosine phosphatase, receptor type,” value was 6.5. The “ID#:ctrl intensity ratio, X66403 cholinergic receptor” value was 9.0, the “ID#:ctrl intensity ratio, X67734 contactin 2” value was 6.8 and the “ID#:ctrl intensity ratio, X68879 empty spiracles homolog 1” value was 2.0. The “ID#:ctrl intensity ratio, X73113 myosin-binding protein C” value was 6.5, the “ID#:ctrl intensity ratio, X84003 TATA box binding protein” value was 12.7 and the “ID#:ctrl intensity ratio, AL031121 unknown” value (Formula C peptides) was 3.8. The “ID#:ctrl intensity ratio, NM_012450 sulfate transport 1” value (Formula C peptides) was 9.0 and the “ID#:ctrl intensity ratio, U21931 fructose-bisphosphatase 1” value (Formula C peptides) was 4.3.
